From PubChem BioAssay AID504834 (National Center for Advancing Translational Sciences (NCATS), 2011)
The campaign covered roughly 320,000 compounds. About 22,000 (6.9%) were called active. Inconclusive results, whose numbers are uncertain, are shown with a selection of clear calls. The call rests on the fitted dose curve; in most records, active means well fitted inhibition curve with a large enough effect; inconclusive means small, poorly fitted or top-dose-only effect, or another doubt; inactive means no such curve, though single readings can be large or run the other way. Potencies of inconclusive entries are doubtful fits and often do not repeat.

Assay: Primary qHTS for delayed death inhibitors of the malarial parasite plastid, 96 hour incubation
Conditions: P. falciparum luciferase reporter growth; series mostly up to 28.7 µM; activity change, negative = inhibition: at the top concentration
Outline: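 Plates of compound plus infected erythrocytes (2% hematocrit, 0.05% parasitemia final) incubate 96 hours, 37 C, 5% CO2. Detection reagent added; reduced luminescence from the parasites' luciferase reporter flags inhibition.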
On the % scale 0 is the no-effect control and ±100 the full control effect; potency means the concentration at half of the fitted maximal effect.

Row | Structure (SMILES) | Potency | activity change, negative = inhibition
1 | Cc1ccc(NC(=S)N(Cc2cccs2)Cc2cc3cc(C)ccc3[nH]c2=O)cc1 | inconclusive: 8.28 µM [inhibitor, partial curve, poor fit] | 
2 | Cc1ccc(S(=O)(=O)N2CCOCC2)cc1NC(=O)c1cccc(S(=O)(=O)N2CCCC2)c1 |  | inactive: 28.9%
3 | COC(=O)c1sc(NC(=O)CSc2nnnn2-c2cccc(OC)c2)nc1C | inconclusive: 11.7 µM [inhibitor, single point] | 
4 | CCOc1ccc(NC(=O)CN2C(=O)NC(C)(c3ccc(OC(F)F)cc3)C2=O)cc1 (stereo unspecified) | inconclusive: 0.828 µM [inhibitor, full curve, poor fit] | 
5 | Cc1cccc(N=C2NN=C(c3ccc4c(c3)OCCO4)CS2)c1 |  | inactive: -81.8%
6 | CN1/C(=C/C(=S)NC(=O)C2CCC2)C(C)(C)c2ccccc21 | inconclusive: 10.4 µM [inhibitor, single point] | 
7 | CCOC(=O)C1CCCN(C(=O)c2ccc(CS(=O)(=O)c3ccc(Br)cc3)o2)C1 (stereo unspecified) | inconclusive: 20.8 µM [inhibitor, single point] | 
9 | Cn1cc(C(=O)N/N=C/c2cc(Br)cs2)c2ccccc21 | inconclusive: 11.7 µM [inhibitor, partial curve] | 
10 | O=C(c1cc(Cl)ccc1Cl)N1CCN(Cc2ccccc2)CC1 | inconclusive: 1.17 µM [inhibitor, partial curve, poor fit] | 
11 | O=C(CN1C(=O)C2CC=CCC2C1=O)Nc1ccc(F)cc1F (stereo unspecified) |  | inactive: 5.41%
12 | CCOc1cc2[nH]c(=O)n(Cc3cccc(OC)c3)c(=O)c2cc1OCC | inconclusive: 18.5 µM [inhibitor, single point] | 
13 | COc1ccccc1NC(=S)N(Cc1ccco1)Cc1cc2cc(C)ccc2[nH]c1=O | inconclusive: 1.17 µM [inhibitor, partial curve, poor fit] | 
14 | Cc1ccc(OCCSCc2nc3ccccc3[nH]2)cc1 | inconclusive: 1.47 µM [inhibitor, full curve] | 
15 | S=C(Nc1ccccc1)N1CCc2ccccc21 | inconclusive: 16.5 µM [inhibitor, single point] | 
16 | O=C(CCN1C(=O)C2C3CC(C(Br)C3Br)C2C1=O)OCC(=O)c1ccccc1 (stereo unspecified) | inconclusive: 4.15 µM [inhibitor, partial curve, poor fit] | 
17 | COc1cccc(N(C(=O)c2snc(C(N)=O)c2N)C(C(=O)NCc2ccccc2)c2ccc(O)cc2)c1 (stereo unspecified) |  | inactive: -27.2%
18 | Cc1ccc(CN2CCN(C(=O)c3ccncc3)CC2)cc1 |  | inactive: 8.27%
19 | O=C(N/N=C/c1cccc([N+](=O)[O-])c1)c1cnccn1 |  | inactive: -12.6%
20 | CCC(=O)Nc1nnc(Cc2ccccc2)s1 |  | inactive: 0%
21 | COc1ccc(NC(=O)C2CCCNC2=O)cc1 (stereo unspecified) | active: 6.57 µM | 
22 | CC1CCCC(N2CCN(S(=O)(=O)c3ccccc3)CC2)C1 (stereo unspecified) | inconclusive: 10.4 µM [inhibitor, single point] | 
23 | CN(CCNC(=O)CCNC(=O)Cn1ccc2ccccc2c1=O)Cc1ccccc1 | inconclusive: 13.1 µM [inhibitor, partial curve, poor fit] | 
24 | CN(CC(=O)Nc1ccc(S(=O)(=O)N2CCCC2)cc1)Cc1c(F)cccc1Cl | active: 13.1 µM | 

Row | Structure (SMILES) | Potency | activity change, negative = inhibition
25 | COc1cc(NC(=O)CN(C)C2CCCCC2)c(C)cc1[N+](=O)[O-] | inconclusive: 18.5 µM [inhibitor, single point] | 
26 | NC(=NCCc1c[nH]c2ccccc12)NC(=O)c1ccc(F)cc1 | inconclusive: 18.5 µM [inhibitor, single point] | 
27 | Cc1cccc(CNc2ncnc3ccc(-c4cccc(Cl)c4)cc23)c1 | active: 4.15 µM | 
28 | CCOc1ccccc1NC(=O)NC1CCCCCCC1 | inconclusive: 5.86 µM [inhibitor, partial curve, poor fit] | 
29 | Cc1nonc1C1CCCN1C(=O)c1cc(COc2ccc(F)cc2Cl)on1 (stereo unspecified) | inconclusive: 18.5 µM [inhibitor, single point] | 
30 | COc1cc(C(=O)N2CCCCCCC2)ccc1OC1CCN(C(C)=O)CC1 | inconclusive: 18.5 µM [inhibitor, single point] | 
31 | Cn1cnnc1SCC(=O)c1ccc2c(c1)OCO2 |  | inactive: -28.6%
32 | CN(Cc1ccco1)S(=O)(=O)c1ccc2c(c1)CCN2C(=O)CCC(=O)O | active: 13.1 µM | 
33 | CC(C)c1nc(SCC(=O)Nc2nccs2)c2ccccc2n1 | inconclusive: 11.7 µM [inhibitor, partial curve] | 
34 | O=C1c2ccccc2C(=O)N1CC(=O)N1c2ccccc2CCc2ccccc21 | inconclusive: 13.1 µM [inhibitor, partial curve, poor fit] | 
35 | N#C/C=C(/N)N1CCN(c2ccc(Cl)c(Cl)c2)CC1 |  | inactive: 46%
36 | CC(Nc1ncnc2sccc12)c1ccccc1 (stereo unspecified) |  | inactive: -24.4%
37 | O=C(NC(Cc1c[nH]c2ccccc12)c1nnc2n1CCCCC2)c1ccccc1Cl (stereo unspecified) | inconclusive: 1.04 µM [inhibitor, full curve, poor fit] | 
38 | Cc1cc(-c2cc(C(=O)O)c3ccccc3n2)c(C)s1 | active: 1.65 µM | 
39 | O=C(N/N=C/c1ccco1)c1cc(-c2ccc(Br)s2)[nH]n1 | inconclusive: 10.4 µM [inhibitor, single point] | 
40 | COc1ccc(NC(=O)CSc2nc3c(c(-c4cccs4)c2C#N)CN(C)CC3)cc1OC | inconclusive: 18.5 µM [inhibitor, single point] | 
41 | CCn1cc(/C=C(\NC(=O)c2ccccc2Cl)C(=O)NCCN2CCOCC2)c2ccccc21 | inconclusive: 8.28 µM [inhibitor, partial curve, poor fit] | 
42 | CCOc1ccc(/C(O)=C2/C(=O)C(=O)N(CCOCCO)C2c2ccccn2)cc1 (stereo unspecified) |  | inactive: 31.6%
43 | CC(C)(C)OC(=O)NCCCC[C@@H](C(=O)NCCCCCCCCCCC(=O)N1CCN(C(=O)OC(C)(C)C)CC1)n1cc(CCCC(=O)O)nn1 | active: 5.86 µM | 
44 | CCC(C)NC(=O)CCSCCC(=O)NC(C)CC (stereo unspecified) | inconclusive: 3.29 µM [inhibitor, partial curve, poor fit] | 
45 | O=C(/C=C/NNC(=O)c1ccc(Cl)cc1)c1ccccc1 |  | inactive: -20.3%
46 | Cc1ccc(NC(=O)CN2C(=O)S/C(=C\c3ccc(C(=O)O)cc3)C2=O)cc1 | active: 14.7 µM | 
47 | COc1cc(NCc2ccc3nc(N)nc(N)c3c2C)cc(OC)c1OC | active: 0.0048 µM | 
48 | Cc1cccc(NC(=S)NCCc2c[nH]c3ccccc23)c1 | inconclusive: 13.1 µM [inhibitor, single point] | 

Among those listed so far, these contain a cyano group.
Row | Structure (SMILES) | Potency | activity change, negative = inhibition
35 | N#C/C=C(/N)N1CCN(c2ccc(Cl)c(Cl)c2)CC1 |  | inactive: 46%
40 | COc1ccc(NC(=O)CSc2nc3c(c(-c4cccs4)c2C#N)CN(C)CC3)cc1OC | inconclusive: 18.5 µM [inhibitor, single point] | 

The results go on:

Row | Structure (SMILES) | Potency | activity change, negative = inhibition
49 | COc1ccc(CCNC(=O)c2cccc(S(=O)(=O)N3CCc4ccccc4C3)c2)cc1 | inconclusive: 18.5 µM [inhibitor, single point] | 
50 | CCOC(=O)Cn1nc(-c2ccc(F)cc2)cc(Cc2ccccc2)c1=O | inconclusive: 5.86 µM [inhibitor, partial curve, poor fit] | 
51 | Cc1ccc(N2CN=c3s/c(=C\c4cccnc4)c(=O)n3C2)cc1 |  | inactive: 39.7%
52 | CCC(=O)Nc1ccc(C(=O)Nc2cccc(C)n2)cc1 |  | inactive: 156%
53 | CN1CCN(c2ccc(C(=O)c3ccccc3)cc2[N+](=O)[O-])CC1 | inconclusive: 18.5 µM [inhibitor, single point] | 
54 | CCOC(=O)C1=NN(C(=O)c2ccccc2)C(O)(c2ccc(C)cc2)C1 (stereo unspecified) |  | inactive: -0.883%
55 | Cc1cc(C)c[n+](CC(=O)c2c(C)cc(C)c([N+](=O)[O-])c2C)c1 |  | inactive: -0.373%
56 | Cc1ccc(-n2c(Cc3cccn3C)nnc2SCC(=O)NCc2ccc3c(c2)OCO3)cc1 | inconclusive: 18.5 µM [inhibitor, single point] | 
57 | O=C(CSc1ccccc1Cl)N1CCOCC1 |  | inactive: 21.6%
58 | Cc1cccc(C)c1NC(=O)C1NC(=O)CC1c1ccccc1 (stereo unspecified) | inconclusive: 16.5 µM [inhibitor, single point] | 
59 | Cc1ccc(-c2nc3c(c(=O)c4ccccc4n3C)c(=O)n2-c2ccccc2)cc1 | inconclusive: 0.165 µM [inhibitor, full curve] | 
60 | COc1cc(NC(=O)CN2C(=O)c3ccccc3S2(=O)=O)c(OC)cc1Cl |  | inactive: 0%
61 | CC(=O)O[C@]1(C(C)=O)CCC2C3CCC4=CC(=O)CCC4(C)C3(F)C(O)CC21C (stereo partly specified) | inconclusive: 19 µM [inhibitor, single point] | 
62 | O=C(CCN1C(=O)/C(=C\c2ccccc2)SC1=S)NNC(=O)c1ccncc1 |  | inactive: 134%
63 | CCN(c1ccccc1)S(=O)(=O)c1ccc(NCC2COc3ccccc3O2)nc1 (stereo unspecified) | inconclusive: 18.5 µM [inhibitor, single point] | 
64 | CCOc1ccc(CSCCNC(=S)Nc2ccc(OC)cc2)cc1 | inconclusive: 2.33 µM [inhibitor, full curve] | 
65 | COc1cc(OC)c(OC)cc1CNC(=O)c1cc(=O)[nH]c2ccccc12 |  | inactive: 0.365%
66 | Cc1cccc(NS(=O)(=O)c2cccc(C(=O)N3CCCCCCC3)c2)c1 | inconclusive: 3.29 µM [inhibitor, partial curve] | 
67 | COc1ccc(NC(=O)c2ccc3c(c2)NC(=O)CS3)cc1 |  | inactive: 39.7%
68 | NC(=O)c1ccc(NC(=O)Cc2cccs2)cc1 | inconclusive: 18.5 µM [inhibitor, single point] | 
69 | COC(=O)C1=CN(Cc2ccc(OC)cc2)C=C(C(=O)OC)C1c1ccc(O)c(OC)c1 | inconclusive: 11.7 µM [inhibitor, single point] | 
70 | Cn1cc(/C=N/Nc2ccccc2)c2ccccc21 | inconclusive: 18.5 µM [inhibitor, single point] | 
71 | COc1ccc(OCc2cc(C(=O)NCCc3ccccc3)no2)c(Cl)c1 | inconclusive: 18.5 µM [inhibitor, single point] | 
